{"source": "PubChem BioAssay AID1259425 (University of Nebraska Medical Center, 2018)", "screen": "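Find knockdowns that reproduce the gene expression pattern seen when KSR1 is lost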 (primary screen)", "cells": "HCT116 human colon cancer cells", "knock-down reagent": "siRNA pool against human genes, 50 nM siRNA", "read-out": "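mRNA of six signature genes measured together by branched-DNA assay after 50 nM siRNA pool, blank removed, divided by geometric mean of two housekeeping genes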", "reading the numbers": "BNIP3L mRNA: higher = more BNIP3L transcript after knockdown; NDRG1 mRNA: higher = more NDRG1 transcript after knockdown", "note": "Here is one part, drawn at random, of about 14,000 reagents. Not all columns of the deposit are shown. Not given: the time to read-out."}
{"gene": "POLR2J", "PubChem SID": "SID363997058", "BNIP3L mRNA, set 1": 0.169, "NDRG1 mRNA, set 1": 0.326}
{"gene": "SNX3", "PubChem SID": "SID363994858", "BNIP3L mRNA, set 1": 0.155, "NDRG1 mRNA, set 1": 0.229}
{"gene": "RBAK", "PubChem SID": "SID364002055", "BNIP3L mRNA, set 1": 0.185, "NDRG1 mRNA, set 1": 0.136}
{"gene": "CCNB3", "PubChem SID": "SID364004289", "BNIP3L mRNA, set 1": 0.193, "NDRG1 mRNA, set 1": 0.146}
{"gene": "LRP6", "PubChem SID": "SID363993520", "BNIP3L mRNA, set 1": 0.0573, "NDRG1 mRNA, set 1": 0.166}
{"gene": "RBPJ", "PubChem SID": "SID363996264", "BNIP3L mRNA, set 1": 0.0761, "NDRG1 mRNA, set 1": 0.496}
{"gene": "HNRNPH3", "PubChem SID": "SID363998140", "BNIP3L mRNA, set 1": 0.199, "NDRG1 mRNA, set 1": 0.363}
{"gene": "SLAMF7", "PubChem SID": "SID364002068", "BNIP3L mRNA, set 1": 0.0857, "NDRG1 mRNA, set 1": 0.119}

The list goes on, starting with the last 2 of the part before.
{"gene": "HNRNPH3", "PubChem SID": "SID363998140", "BNIP3L mRNA, set 1": 0.199, "NDRG1 mRNA, set 1": 0.363}
{"gene": "SLAMF7", "PubChem SID": "SID364002068", "BNIP3L mRNA, set 1": 0.0857, "NDRG1 mRNA, set 1": 0.119}
{"gene": "GPR156", "PubChem SID": "SID364004754", "BNIP3L mRNA, set 1": 0.17, "NDRG1 mRNA, set 1": 0.308}
{"gene": "FCER1A", "PubChem SID": "SID363993213", "BNIP3L mRNA, set 1": 0.0517, "NDRG1 mRNA, set 1": 0.202}
{"gene": "PCDHB15", "PubChem SID": "SID364001262", "BNIP3L mRNA, set 1": 0.113, "NDRG1 mRNA, set 1": 0.273}
{"gene": "FOXO1", "PubChem SID": "SID363993226", "BNIP3L mRNA, set 1": 0.0419, "NDRG1 mRNA, set 1": 0.126}
